No constants are given. Whether binding was seen depends on the method and setting. Binding calls can cover weak binding; strength is not graded here.
Tests used:
Experiment in all cases: two-hybrid
[1] = biological target: SnRK1α1 catalytic domain (CD) (Arabidopsis thaliana)
[2] = biological target: SnRK1α1 regulatory domain (RD) (Arabidopsis thaliana)
[3] = biological target: RAPTOR1B Raptor N-terminal CASPase-like (RNC) domain (Arabidopsis thaliana)
[4] = biological target: RAPTOR1B WD40 repeats (C-terminus) (Arabidopsis thaliana)

Measured: binding

B1: FCS-Like Zinc Finger 8 (FLZ8) (protein, UniProt Q8L471 1-267)
chain: MLKKRSRSKQALMAETNQSQNQKQSKTTPFPRLFTAFSSFKSFTENDAVASPTSILDTKPFSVLKNPFGSDNPKTQEPETRLKLEPKRIGLAIVDSLIQDETPEPGPRSGTILFGSQLRIRVPDSPISSSDFGIKTRNSQPETKKPGSESGLGSPRIISGYFPASDMELSEDYTCVTCHGPNPRTIHIFDNCIVESQPGVVFFRSSDPVNESDSDYSPPDSFLSCCCNCKKSLGPRDDIFMYRGDRAFCSSECRSIEMMMSEENDTK
binds: all assays above
